# Laboratory results from the supplement of paper PMC10735217.
# Structures can show the parent of a compound that is named as a salt. The list shows a part of the results. Single values are uncertain here, since repeats match poorly.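 Human kidney-derived cells stably carry a construct in which eight TEAD-binding elements drive luciferase, measured by luminescence in a drug-repurposing library screen. A hit is any compound whose signal exceeds the plate mean by more than five robust Z scores.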
# Test system: HEK293A TEAD-LUC reporter
# Assay: TEAD-luciferase reporter activity (YAP activation), robust Z score vs plate; higher = stronger YAP/TEAD activation
# Details: 24 h
SMILES,TEAD-luciferase reporter activity (compound concentration: 200 nM),TEAD-luciferase reporter activity (compound concentration: 2 uM),TEAD-luciferase reporter activity (compound concentration: 10 uM)
Cc1nnc(SCC2=C(C(=O)O)N3C(=O)[C@@H](NC(=O)Cn4cc(Cl)c(=O)c(Cl)c4)[C@H]3SC2)s1 [cefazedone sodium],inactive: -0.546,inactive: -0.767,inactive: 0.196
CCOc1nc2cccc(C(=O)OC(C)OC(=O)C3C[C@H](OC)[C@@H](O[N+](=O)[O-])C3)c2n1Cc1ccc(-c2ccccc2-c2nnn[nH]2)cc1 (stereo partly drawn),inactive: -0.95,inactive: -1.04,inactive: 2
CC[C@H]1OC(=O)[C@H](C)C(=O)[C@H](C)[C@@H](O[C@@H]2O[C@H](C)C[C@H](N(C)C)[C@H]2O)[C@](C)(OC)C[C@@H](C)C(=O)[C@H](C)[C@H]2N(NCCCc3ccnc4ccccc34)C(=O)O[C@]12C,inactive: 0.631,inactive: 0.528,inactive: 1.79
COc1cc(CC(=O)N[C@@H](CC(C)C)c2cc(CCC(=O)O)on2)ccc1NC(=O)Nc1ccccc1C,inactive: 0.312,inactive: 0.926,inactive: 3.64
O=C(c1ccc2c(c1)OCO2)N1CCN(C2CCNCC2)C(=O)C1,inactive: 1.44,,inactive: 2.5
Cc1nc(C)c(C)nc1C [Chuanxiongzine],inactive: -0.195,inactive: -2.13,active: 5.61
Cc1nc(C)c(C)nc1C [Ligustrazine HCl],,inactive: -0.895,
Cc1cc(C)nc(NS(=O)(=O)c2ccc(/N=N/c3ccc(O)c(C(=O)O)c3)cc2)n1,inactive: 0.645,inactive: -0.886,inactive: -0.837
CCCCCCCCCCCCCCCCCCOP(=O)(O)OC[C@H]1O[C@@H](n2ccc(N)nc2=O)[C@@H](O)[C@@H]1O,inactive: -1.18,inactive: -0.0773,inactive: 1.53
Cc1cccc(C)c1CNc1cc(C(=O)NCCO)cn2c(C)c(C)nc12 [Linaprazan],inactive: -1.17,inactive: -0.901,inactive: -1.84
Cn1c(=O)c2[nH]cnc2n(C)c1=O [Aminophylline],inactive: -0.552,inactive: -1.2,inactive: 0.223
COc1cc(/C=C/C(=O)OCCCCO[N+](=O)[O-])ccc1OC(=O)CC[C@@H](C)[C@H]1CC[C@H]2[C@@H]3[C@@H](O)C[C@@H]4C[C@H](O)CC[C@]4(C)[C@H]3CC[C@]12C,inactive: 3.02,inactive: -1.22,inactive: -0.657
O=C(O)CCC(=O)NCCc1c[nH]cn1,inactive: -1.24,inactive: -1.27,inactive: -0.842
CC(=O)[C@]1(O)Cc2c(O)c3c(c(O)c2[C@@H](O[C@H]2C[C@H](N)[C@H](O)[C@H](C)O2)C1)C(=O)c1ccccc1C3=O [idarubicin hydrochloride],inactive: -0.465,,inactive: 1.69
CC(=O)[C@]1(O)Cc2c(O)c3c(c(O)c2[C@@H](O[C@H]2C[C@H](N)[C@H](O)[C@H](C)O2)C1)C(=O)c1ccccc1C3=O [idarubicin],,inactive: -4.1,
CCOC(=O)c1ccccc1OC(N)=O,inactive: -0.417,inactive: -1.16,inactive: 0.898
CCN(CC)CC(=O)Nc1ccc(OC(=O)Cc2c(C)n(C(=O)c3ccc(Cl)cc3)c3ccc(OC)cc23)cc1,inactive: 0.627,inactive: -1.25,inactive: -0.367
O=C(NCc1ccoc1)c1cnc(Nc2cccc(Cl)c2)nc1C(F)(F)F,inactive: -2.07,inactive: -0.82,inactive: 3.96
O=C1C(Cc2ccc(O)cc2)N2C(=O)CCN(C(=O)NCc3ccccc3)C2CN1Cc1ccc2ccccc2c1 (stereo not drawn),inactive: 3.28,inactive: -1.28,inactive: 0.671
CC(c1ccc(C#N)cc1)N1CCN(c2ccc(C#N)cc2Cl)C(c2ccc(Cl)cc2)C1 (stereo not drawn) [Giminabant],inactive: -0.511,inactive: 0.146,inactive: -0.656
CN1C(=O)CC[C@H]1c1cccnc1 [(-)-Cotinine],inactive: -1.23,,inactive: 4.06
O=C(C1CCCN(c2nc3ncccc3o2)C1)N1CCN(Cc2ccccc2)CC1 (stereo not drawn),inactive: -2.02,,active: 5.51
O=C(Nc1ccc(N2CCOCC2)cc1)c1ccccc1Nc1ccc(F)cc1,inactive: -0.735,inactive: -0.504,inactive: 4.06
CCOC(=O)Nc1cc2c(cn1)[nH]c1ccccc12,inactive: -0.615,inactive: 0.807,inactive: 1.01
"Cn1c(=O)c2c(ncn2CC(O)CO)n(C)c1=O (stereo not drawn) [diprophylline, Elan]",inactive: -0.856,,inactive: 3.94
Cn1c(=O)c2c(ncn2CC(O)CO)n(C)c1=O (stereo not drawn) [diprophylline],,inactive: -1.03,
O=C(Nc1ccccc1)N(CC1=CC(Cc2ccccc2)(NC(=O)C(Cl)(Cl)Cl)CC1)c1cccc(OCCN2CCOCC2)c1 (stereo not drawn),inactive: 1.79,inactive: -0.512,inactive: 1.02
O=C(NCCS(=O)(=O)O)c1cccs1 [Taurosteine],inactive: -0.723,inactive: 0.455,inactive: 0.185

# Looked up one by one from the list above (two):
SMILES,TEAD-luciferase reporter activity (compound concentration: 200 nM),TEAD-luciferase reporter activity (compound concentration: 2 uM),TEAD-luciferase reporter activity (compound concentration: 10 uM)
O=C(NCc1ccoc1)c1cnc(Nc2cccc(Cl)c2)nc1C(F)(F)F,inactive: -2.07,inactive: -0.82,inactive: 3.96
CC(=O)[C@]1(O)Cc2c(O)c3c(c(O)c2[C@@H](O[C@H]2C[C@H](N)[C@H](O)[C@H](C)O2)C1)C(=O)c1ccccc1C3=O [idarubicin],,inactive: -4.1,
